The record followed here is PMC7819943, “Rice protein-binding microarrays: a tool to detect cis-acting elements near promoter regions in rice”.

Protein sequences, listed by entry. Tags and fused reporters are not part of them.
UniProt Q0JBA9, entry or part of it: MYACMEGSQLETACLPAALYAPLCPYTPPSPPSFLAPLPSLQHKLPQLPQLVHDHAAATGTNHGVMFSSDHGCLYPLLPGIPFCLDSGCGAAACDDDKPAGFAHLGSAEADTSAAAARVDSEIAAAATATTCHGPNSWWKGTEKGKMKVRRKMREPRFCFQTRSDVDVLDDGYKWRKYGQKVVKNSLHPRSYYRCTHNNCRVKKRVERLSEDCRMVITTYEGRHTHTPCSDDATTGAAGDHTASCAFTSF

The list shows a part of the results.

In this assay the target is OsWRKY34 (Oryza sativa, UniProt Q0JBA9 1-250). In words: protein-binding microarray (RPBM); PBS, 2% BSA, 51.3 ng/ul salmon testes DNA, 50 uM zinc acetate, 200 nM TF, 25 C, 1 h; high values mean tight binding. As to conditions: protein: recombinant; tags: N-terminal polyhistidine and DsRed monomer fusion (pET32a); label: CyDye5-dUTP incorporated in the synthesized complementary strand; 3' TTTTT single-stranded linker to array surface; dsDNA, one strand shown. The procedure, abridged:
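Using Ni–NTA, transcription factors fused N-terminally to polyhistidine and DsRed were purified after expression in E. coli BL21-CodonPlus. These were incubated at 200 nM with a blocked, double-stranded custom Agilent array for 1 h at 25 °C in a buffer containing 50 µM zinc acetate, and the array was washed. The binding signal is per-feature fluorescence intensity (arbitrary units) on an Axon 4000B scanner.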
Regarding “ACAGATAATCACCACCACCAATGTGGACCCACCCATTTTTCGGAGTCACCTAGTGCAG”, the binding signal is 8520 fluorescence intensity (a.u.).

Regarding “CGTCTGGCCCTGCCACATGACATGCATGCGCCACGCACGACGGAGTCACCTAGTGCAG”, the binding signal is 8060 fluorescence intensity (a.u.).

Regarding “CATTCACCTTGTCTCTAGTCCTCGTTCGATTAGCCGGCGACGGAGTCACCTAGTGCAG”, the binding signal was 8500 fluorescence intensity (a.u.).

For “CTCGCGCCACGCCACCCCACTGTCCCTGCACGCTGCAGCTCGGAGTCACCTAGTGCAG”, the binding signal was 9990 fluorescence intensity (a.u.).

Take “TTCCTTTTGTCCTCCATGCTCTCTGTATGTCGGTATTTTACGGAGTCACCTAGTGCAG”: the binding signal is 10500 fluorescence intensity (a.u.).

Turning to “TTATTGTGACTTGATTCGTCATTAAATATTTTTAAAATATCGGAGTCACCTAGTGCAG”, the binding signal is 8380 fluorescence intensity (a.u.).

As for “ACAATTATGTTACCGCGATCGCGAGATTTCTCTATATCTACGGAGTCACCTAGTGCAG”, the binding signal is 8192 fluorescence intensity (a.u.).

For the sequence “GCAAAACCTTCATGCTCATCGATATTACTCTTATCGCCAACGGAGTCACCTAGTGCAG”, the binding signal is 9590 fluorescence intensity (a.u.).

“ACTGATATCTCTCTAGTCTCTACACCTCTTCTCTTCCCCTCGGAGTCACCTAGTGCAG”: the binding signal is 11100 fluorescence intensity (a.u.).

For “TCCTAGTCGGCGCGTACGCGTCAGGGACGCACGTTTTTTTCGGAGTCACCTAGTGCAG”, the binding signal is 10000 fluorescence intensity (a.u.).

Take “ACCACACAACACTGCACTAGTAAACTCTTGCTTCTTCTCTCGGAGTCACCTAGTGCAG”: the binding signal is 8790 fluorescence intensity (a.u.).

With “ATATATTTTCTACGTACTATACTACTACTCATGTAGTTCCCGGAGTCACCTAGTGCAG”, the binding signal is 9880 fluorescence intensity (a.u.).

As for “TTTGTGCCCTCAACACCTCGCAGGTTCGACCGGTCGCTTCCGGAGTCACCTAGTGCAG”, the binding signal was 8080 fluorescence intensity (a.u.).

“CAAAGTCTCAATTTGTCCCAGTTTCTCCCTGTCCACTTCTCGGAGTCACCTAGTGCAG”: the binding signal is 8700 fluorescence intensity (a.u.).

Regarding “TATTTGTCTATAAACTTAGTCAAACTTAAAACAGTTTGACCGGAGTCACCTAGTGCAG”, the binding signal was 9860 fluorescence intensity (a.u.).

Consider “TTCTGTTTAATCCATCTTGATTGTATTTCATTAGTTGACACGGAGTCACCTAGTGCAG”, for which the binding signal was 10900 fluorescence intensity (a.u.).

Turning to “AGTCAACAACAGGCGGGAGGAGGGGAGGAGGCGGAGGCAGCGGAGTCACCTAGTGCAG”, the binding signal was 12200 fluorescence intensity (a.u.).

With “ATCCTTTCTTCCTTGCCTAAGTTCATGAGTACCGAAAGGTCGGAGTCACCTAGTGCAG”, the binding signal is 9560 fluorescence intensity (a.u.).

For the sequence “GGTCCACTCGAAGAAGGTTTTAGTTGCCATCGCCATTTCCCGGAGTCACCTAGTGCAG”, the binding signal was 10700 fluorescence intensity (a.u.).

For the sequence “GTTTCCTGGTAACTTTTCCACCTTTCCATTTCTGCAGAACCGGAGTCACCTAGTGCAG”, the binding signal was 8090 fluorescence intensity (a.u.).

With “ACTTGTTCCCATGCACATATGTGCTTACCTTGTGCCTTGTCGGAGTCACCTAGTGCAG”, the binding signal is 8330 fluorescence intensity (a.u.).

Take “TCGGTACTCTTGCTGAAGCAATCCTTTCTTCCTTGCCTAACGGAGTCACCTAGTGCAG”: the binding signal is 9140 fluorescence intensity (a.u.).

For the sequence “TTATGTGTGAACCGTACGCTACTATTCATACTTCGAATTTCGGAGTCACCTAGTGCAG”, the binding signal was 8320 fluorescence intensity (a.u.).

Turning to “CGCGTCAATCACGCTAGCCCACCGGCGCCTTTCCGCCACGCGGAGTCACCTAGTGCAG”, the binding signal is 8350 fluorescence intensity (a.u.).

Turning to “TGTTATCCCTTCCCATTCACCTCTCCCATTCCTTCTCTTCCGGAGTCACCTAGTGCAG”, the binding signal is 8760 fluorescence intensity (a.u.).

Take “TTCAACGTTTGACCGTCCGTCTTATTTGAAAAATTTTTATCGGAGTCACCTAGTGCAG”: the binding signal was 8820 fluorescence intensity (a.u.).

For the sequence “CCGCGGCCCAATAGCTCTTAGCCCATTGCCATCCGCCATCCGGAGTCACCTAGTGCAG”, the binding signal is 9820 fluorescence intensity (a.u.).

For the sequence “TTCCATTTCTATATTTTCTTCTATTTTATGTTTTTTACATCGGAGTCACCTAGTGCAG”, the binding signal is 8240 fluorescence intensity (a.u.).

Turning to “CCGCCCACACACCCACCACCATTTCCTCCTCCTTCTTCTACGGAGTCACCTAGTGCAG”, the binding signal was 10200 fluorescence intensity (a.u.).

In the case of “TATTTACAATTGTGCGTATATTATGAGCGTCTGTCTTTGTCGGAGTCACCTAGTGCAG”, the binding signal was 9350 fluorescence intensity (a.u.).

Regarding “CCTATTACGACGTCGCCGGCCACCAGCGCGCCTGCCCGCACGGAGTCACCTAGTGCAG”, the binding signal was 8400 fluorescence intensity (a.u.).

As for “GATTTTACCTCAGTTTCCGTTAGCACGCTTTTCAAACTATCGGAGTCACCTAGTGCAG”, the binding signal was 8690 fluorescence intensity (a.u.).

In the case of “CGATCGACAATCTGCTCTATATTTTGCTTCACAGCTTCCGCGGAGTCACCTAGTGCAG”, the binding signal was 9740 fluorescence intensity (a.u.).

For the sequence “TCTCATCCGGCCAGGTTCCAAGCAGCCAGAACTTACTTATCGGAGTCACCTAGTGCAG”, the binding signal is 9540 fluorescence intensity (a.u.).

Take “CTCTTCCACGTCAACATCCTGCAGGACCAGCTCATCCGCGCGGAGTCACCTAGTGCAG”: the binding signal is 8690 fluorescence intensity (a.u.).

In the case of “GAGAGAGAGAAGTCCAAGCCGCAGAACCATTACAGTGTGCCGGAGTCACCTAGTGCAG”, the binding signal was 8530 fluorescence intensity (a.u.).

For the sequence “AATTCTTGCCATTTTGGAGCGGTGCAACTTTTTGCCATATCGGAGTCACCTAGTGCAG”, the binding signal is 10200 fluorescence intensity (a.u.).

As to “GCTTGGTGGCAGCGACGACTGTGGTGGAGGTGGTGTCGTCCGGAGTCACCTAGTGCAG”, the binding signal was 8240 fluorescence intensity (a.u.).

In the case of “GGGCTGGAGATGGAGATGGAGATGGAGATGGAGGGTGGGTCGGAGTCACCTAGTGCAG”, the binding signal is 8660 fluorescence intensity (a.u.).

Take “CTTAGCAATTATTTTTGTCACATCAGTAGGTTCATTTAACCGGAGTCACCTAGTGCAG”: the binding signal is 8230 fluorescence intensity (a.u.).

Take “TGTCGTTGTTATTTACTTATTCCCATGTGAACCTGCTTCTCGGAGTCACCTAGTGCAG”: the binding signal was 11900 fluorescence intensity (a.u.).

Turning to “ACCTAAAAGCGCCAACCGCCGTGACCGTTCCCTGCACCCTCGGAGTCACCTAGTGCAG”, the binding signal was 11500 fluorescence intensity (a.u.).
